This note sets out measurements from ChEMBL document CHEMBL1124222 (J Med Chem, 1988).

Amino acid sequences for entries named in this document (tags omitted).
UniProt P61169, whole entry: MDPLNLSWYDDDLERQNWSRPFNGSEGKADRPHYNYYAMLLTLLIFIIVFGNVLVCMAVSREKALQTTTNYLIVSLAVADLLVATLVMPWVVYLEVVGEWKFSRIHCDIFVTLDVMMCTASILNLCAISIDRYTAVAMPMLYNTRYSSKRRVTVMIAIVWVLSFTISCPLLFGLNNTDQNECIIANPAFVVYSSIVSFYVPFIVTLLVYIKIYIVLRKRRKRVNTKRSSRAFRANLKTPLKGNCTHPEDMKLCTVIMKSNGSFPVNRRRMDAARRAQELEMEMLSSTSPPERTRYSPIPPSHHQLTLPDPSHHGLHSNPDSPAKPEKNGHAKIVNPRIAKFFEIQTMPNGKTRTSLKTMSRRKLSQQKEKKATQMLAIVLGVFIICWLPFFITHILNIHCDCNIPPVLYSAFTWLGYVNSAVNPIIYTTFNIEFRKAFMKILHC

For this assay, the target named is D(2) dopamine receptor (Rattus norvegicus, UniProt P61169).

`CC(C)NCC(O)COc1cccc2ccccc12` (stereo unspecified) [PROPRANOLOL] yielded a Ki of 12.9 µM.

One may read the Ki as a dissociation constant, usually derived from enzyme kinetics or from competition with a known ligand. Low readings indicate a stronger hold on the target, high ones a looser hold on the target.
